Values of other authors in patent US6673574B2, “Oral delivery of peptides using enzyme-cleavable membrane translocators” (Unigene Laboratories Inc., priority 2000, dated 2004).
Not every detail of the peptide structures is certain; ends, links or a residue may be inferred.

Settings: cited from earlier work

## CC(C)C[C@H](NC(=O)[C@H](CCCCN)NC(=O)CNC(=O)[C@H](CC(C)C)NC(=O)[C@@H](NC(=O)[C@@H]1CSSC[C@H](N)C(=O)N[C@@H](CO)C(=O)N[C@@H](CC(N)=O)C(=O)N[C@@H](CC(C)C)C(=O)N[C@@H](CO)C(=O)N[C@@H]([C@@H](C)O)C(=O)N1)C(C)C)C(=O)N[C@@H](CO)C(=O)N[C@@H](CCC(N)=O)C(=O)N[C@@H](CCC(=O)O)C(=O)N[C@@H](CC(C)C)C(=O)N[C@@H](Cc1c[nH]cn1)C(=O)N[C@@H](CCCCN)C(=O)N[C@@H](CC(C)C)C(=O)N[C@@H](CCC(N)=O)C(=O)N[C@H](C(=O)N[C@@H](Cc1ccc(O)cc1)C(=O)N1CCC[C@H]1C(=O)N[C@@H](CCCNC(=N)N)C(=O)N[C@H](C(=O)N[C@@H](CC(N)=O)C(=O)N[C@H](C(=O)NCC(=O)N[C@@H](CO)C(=O)NCC(=O)N[C@H](C(=O)N1CCC[C@H]1C(N)=O)[C@@H](C)O)[C@@H](C)O)[C@@H](C)O)[C@@H](C)O [salmon calcitonin]
May last, notwithstanding rapid decrease in blood levels
  duration of beneficial effect on osteoclasts: more than 24 hours
nasal, 200 International units
  peak level at which effective against osteoporosis: ≥ 10 picograms per milliliter
